Data from US20260092179A1, “GENETICALLY MODIFIED HOST CELLS PRODUCING VIOLACEIN, ANALOGUES, AND DERIVATIVES THEREOF” (OCTARINE BIO APS, priority 2022, published 2026).

Experiments:
[1] = Direct dyeing of fabrics with pigments in lipophilic in situ extractants diluted in ethanol (ΔE); conditions: dye bath 90% ethanol 10% isopropyl myristate, room temperature, 30 minutes, vs undyed fabric
[2] = Direct dyeing of fabrics with purified pigments dissolved in 100% ethanol (colour coordinates, ΔE); conditions: dye bath 100% ethanol, room temperature, 30 minutes; for ΔE: vs undyed fabric

Work on `O=C1N=C(c2c[nH]c3ccccc23)C=C1c1c[nH]c2ccccc12` [prodeoxyviolacein] yielded a ΔE ([1]; Bleached cotton) of 16.62, a ΔE ([1]; Denim) of 19.44 and a ΔE ([1]; Diacetate) of 23.62. The ΔE ([1]; Hemp) was 4.41, the ΔE ([1]; Nylon 6,6) was 36.78 and the ΔE ([1]; Polyester) was 16.96. For the same compound, the ΔE ([1]; Silk) was 6.08, the ΔE ([1]; Viscose) was 7.23 and the ΔE ([1]; Wool) was 11.26. It also gave an L ([2]; Bleached cotton) of 74.15, an a ([2]; Bleached cotton) of 2.01 and a b ([2]; Bleached cotton) of 4.43. The ΔE ([2]; Bleached cotton) was 15.86, the L ([2]; Denim) was 73.29 and the a ([2]; Denim) was 3.33. For the same compound, the b ([2]; Denim) was 5.2, the ΔE ([2]; Denim) was 19.44 and the L ([2]; Diacetate) was 67.15. It also gave an a ([2]; Diacetate) of 1.39, a b ([2]; Diacetate) of 9.16 and a ΔE ([2]; Diacetate) of 21.05. It also gave an L ([2]; Hemp) of 80.4, an a ([2]; Hemp) of 0.87 and a b ([2]; Hemp) of 4.4. For the same compound, the ΔE ([2]; Hemp) was 11.01, the L ([2]; Nylon 6,6) was 61.99 and the a ([2]; Nylon 6,6) was 1.4. For the same compound, the b ([2]; Nylon 6,6) was 6, the ΔE ([2]; Nylon 6,6) was 27.44 and the L ([2]; Polyester) was 71.81. It also gave an a ([2]; Polyester) of −0.85, a b ([2]; Polyester) of 3.08 and a ΔE ([2]; Polyester) of 17.57. For the same compound, the L ([2]; Silk) was 74.63, the a ([2]; Silk) was −0.01 and the b ([2]; Silk) was 5.09. It also gave a ΔE ([2]; Silk) of 15.89, an L ([2]; Viscose) of 70.58 and an a ([2]; Viscose) of 1.7. For the same compound, the b ([2]; Viscose) was 4.57, the ΔE ([2]; Viscose) was 17.25 and the L ([2]; Wool) was 65.86. The a ([2]; Wool) was −1.83, the b ([2]; Wool) was 6.18 and the ΔE ([2]; Wool) was 18.19.

Compound `O=C1N=C(c2c[nH]c3ccc(O)cc23)C=C1c1c[nH]c2ccccc12` [proviolacein] has a ΔE ([1]; Bleached cotton) of 18.99, a ΔE ([1]; Denim) of 15.82 and a ΔE ([1]; Diacetate) of 20.07. It also gave a ΔE ([1]; Hemp) of 10.32, a ΔE ([1]; Nylon 6,6) of 35.99 and a ΔE ([1]; Polyester) of 19.97. It also gave a ΔE ([1]; Silk) of 13.00, a ΔE ([1]; Viscose) of 14.79 and a ΔE ([1]; Wool) of 13.90. It also gave an L ([2]; Bleached cotton) of 77.07, an a ([2]; Bleached cotton) of 3.28 and a b ([2]; Bleached cotton) of 2.46. The ΔE ([2]; Bleached cotton) was 12.77, the L ([2]; Denim) was 73.29 and the a ([2]; Denim) was 3.33. For the same compound, the b ([2]; Denim) was 5.2, the ΔE ([2]; Denim) was 19.44 and the L ([2]; Diacetate) was 70.57. The a ([2]; Diacetate) was 2.52, the b ([2]; Diacetate) was 5.61 and the ΔE ([2]; Diacetate) was 16.60. The L ([2]; Hemp) was 84.21, the a ([2]; Hemp) was 2.59 and the b ([2]; Hemp) was 3.19. It also gave a ΔE ([2]; Hemp) of 7.26, an L ([2]; Nylon 6,6) of 64.73 and an a ([2]; Nylon 6,6) of 3.29. For the same compound, the b ([2]; Nylon 6,6) was 2.07, the ΔE ([2]; Nylon 6,6) was 24.14 and the L ([2]; Polyester) was 74.88. The a ([2]; Polyester) was −0.22, the b ([2]; Polyester) was 1.66 and the ΔE ([2]; Polyester) was 14.28. For the same compound, the L ([2]; Silk) was 82.02, the a ([2]; Silk) was 1.68 and the b ([2]; Silk) was 3.73. For the same compound, the ΔE ([2]; Silk) was 8.50, the L ([2]; Viscose) was 78.01 and the a ([2]; Viscose) was 0.84. The b ([2]; Viscose) was 7.88, the ΔE ([2]; Viscose) was 10.91 and the L ([2]; Wool) was 70.77. It also gave an a ([2]; Wool) of −0.51, a b ([2]; Wool) of 5.17 and a ΔE ([2]; Wool) of 13.14.

`O=C1NC(c2c[nH]c3ccc(O)cc23)=C/C1=C1\C(=O)Nc2ccccc21` [violacein] showed a ΔE ([1]; Bleached cotton) of 35.32, a ΔE ([1]; Denim) of 33.65 and a ΔE ([1]; Diacetate) of 54.78. It also gave a ΔE ([1]; Hemp) of 28.03, a ΔE ([1]; Nylon 6,6) of 70.93 and a ΔE ([1]; Polyester) of 19.63. The ΔE ([1]; Silk) was 25.60, the ΔE ([1]; Viscose) was 33.31 and the ΔE ([1]; Wool) was 28.50. For the same compound, the L ([2]; Bleached cotton) was 63.39, the a ([2]; Bleached cotton) was 4.95 and the b ([2]; Bleached cotton) was −5.28. The ΔE ([2]; Bleached cotton) was 26.95, the L ([2]; Denim) was 60.57 and the a ([2]; Denim) was 0.77. It also gave a b ([2]; Denim) of −10.83, a ΔE ([2]; Denim) of 33.65 and an L ([2]; Diacetate) of 46. The a ([2]; Diacetate) was 9.04, the b ([2]; Diacetate) was −9.93 and the ΔE ([2]; Diacetate) was 42.18. For the same compound, the L ([2]; Hemp) was 70.83, the a ([2]; Hemp) was 2.66 and the b ([2]; Hemp) was −6.04. It also gave a ΔE ([2]; Hemp) of 20.87, an L ([2]; Nylon 6,6) of 42.55 and an a ([2]; Nylon 6,6) of 5.15. For the same compound, the b ([2]; Nylon 6,6) was −15.59, the ΔE ([2]; Nylon 6,6) was 48.45 and the L ([2]; Polyester) was 68.51. The a ([2]; Polyester) was 2.89, the b ([2]; Polyester) was −0.37 and the ΔE ([2]; Polyester) was 20.67. For the same compound, the L ([2]; Silk) was 72.14, the a ([2]; Silk) was 3.83 and the b ([2]; Silk) was −5.27. The ΔE ([2]; Silk) was 19.22, the L ([2]; Viscose) was 64.89 and the a ([2]; Viscose) was −0.95. It also gave a b ([2]; Viscose) of −2.06, a ΔE ([2]; Viscose) of 23.50 and an L ([2]; Wool) of 64.53. For the same compound, the a ([2]; Wool) was 0.76, the b ([2]; Wool) was 1.21 and the ΔE ([2]; Wool) was 19.76.
